Experimental data: PubChem BioAssay AID1259308 (NCATS, 2017)
Here is an unselected part of about 59,000 deposited reagents. Over the whole deposit, about 1,510 (2.6%) are marked active. 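Calls use total luciferase alone and ignore viability, so some active siRNAs may act by altering cell number.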 Entries without a mark were called inactive. Reagents against one gene are numbered here. Reagent sequences are not shown.

- Screen: 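Genes whose loss raises luciferase production in HEK293 cells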 (primary screen)
- System: human HEK293 embryonic kidney cells stably expressing firefly luciferase (HEK-CMV-Luc2-Hygro)
- Reagent: single siRNA against human genes, 0.8 pmol siRNA per well
- Timing: 72 h
- Measurement: 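Reporter luminescence and viable-cell signal on separate replicate plates, given as percent of non-targeting control and median/MAD z-scores, plus per-cell luciferase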
- Scale: total luciferase, z-score and total luciferase, % of control: higher = more reporter protein produced; luciferase per cell, z-score: higher = more reporter output per viable cell; viable cells, % of control: higher = more viable cells
- Hit rule: 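Active when the median/MAD z-score for overall luciferase is greater than 3; a gene was taken forward for validation with new siRNAs if at least two of its three siRNAs passed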
- Meaning of the calls: active = raised luciferase; inactive = no rise

target | reagent no. | total luciferase, z-score | total luciferase, % of control | luciferase per cell, z-score | viable cells, % of control
RASSF3 (Ras association domain family member 3) | 1 | 1.68 | 115 | 1.25 | 92.6
RASSF3 (Ras association domain family member 3) | 2 | 0.964 | 101 | 0.107 | 110
RASSF3 (Ras association domain family member 3) | 3 | -1.06 | 60.8 | -1.15 | 91.9
C11orf65 (chromosome 11 open reading frame 65) | 1 | -0.18 | 78.3 | -0.951 | 112
C11orf65 (chromosome 11 open reading frame 65) | 2 | 0.479 | 91.4 | 1.87 | 62.5
C11orf65 (chromosome 11 open reading frame 65) | 3 | 0.309 | 88 | -0.52 | 113
AZGP1 (alpha-2-glycoprotein 1, zinc-binding) | 1 | 1.8 | 118 | 1.74 | 83.3
AZGP1 (alpha-2-glycoprotein 1, zinc-binding) | 2 | -1.38 | 54.4 | 0.27 | 56.6
AZGP1 (alpha-2-glycoprotein 1, zinc-binding) | 3 | 1.98 | 121 | 2.09 | 78.3
SIK3 (SIK family kinase 3) | 1 | 2.16 | 125 | 1.27 | 99.9
SIK3 (SIK family kinase 3) | 2 | 1.5 | 112 | 1.5 | 84.2
SIK3 (SIK family kinase 3) | 3 | 3.25 (active) | 147 | 1.75 | 103
ZNF678 (zinc finger protein 678) | 1 | 3.17 (active) | 145 | 2.96 | 74.2
ZNF678 (zinc finger protein 678) | 2 | -0.899 | 64 | -0.99 | 92.8
ZNF678 (zinc finger protein 678) | 3 | 0.667 | 95.2 | 0.347 | 97
HAPSTR1 (HUWE1 associated protein modifying stress responses) | 1 | 2.32 | 128 | 1.78 | 89.6
HAPSTR1 (HUWE1 associated protein modifying stress responses) | 2 | 1.34 | 109 | 1.16 | 89.4
HAPSTR1 (HUWE1 associated protein modifying stress responses) | 3 | 1.01 | 102 | 0.417 | 102
SPANXN4 (SPANX family member N4) | 1 | 0.0125 | 82.1 | -0.045 | 92.9
SPANXN4 (SPANX family member N4) | 2 | 0.0884 | 83.6 | 0.298 | 86.4
SPANXN4 (SPANX family member N4) | 3 | 1.11 | 104 | 0.869 | 92.5
COQ6 (coenzyme Q6, monooxygenase) | 1 | 2.62 | 134 | 1.82 | 92.7
COQ6 (coenzyme Q6, monooxygenase) | 2 | -0.536 | 71.2 | -1.11 | 107
COQ6 (coenzyme Q6, monooxygenase) | 3 | -0.739 | 67.2 | -0.715 | 90.6
MID1 (midline 1) | 1 | -0.476 | 72.4 | -0.227 | 85.9
MID1 (midline 1) | 2 | 1.3 | 108 | 2.21 | 67.2
MID1 (midline 1) | 3 | -0.343 | 75.1 | 0.126 | 81.1
REEP2 (receptor accessory protein 2) | 1 | -0.0872 | 80.2 | -0.0886 | 91.7
REEP2 (receptor accessory protein 2) | 2 | -0.141 | 79.1 | -0.607 | 104
REEP2 (receptor accessory protein 2) | 3 | 0.519 | 92.2 | 1.82 | 63.7
IFNW1 (interferon omega 1) | 1 | 0.138 | 84.6 | 1.4 | 65.5
IFNW1 (interferon omega 1) | 2 | 0.58 | 93.4 | 0.597 | 89.2
IFNW1 (interferon omega 1) | 3 | -1.83 | 45.5 | -2.04 | 87
EMC6 (ER membrane protein complex subunit 6) | 1 | -0.909 | 63.8 | -1.15 | 96.6
EMC6 (ER membrane protein complex subunit 6) | 2 | -0.217 | 77.6 | -0.823 | 108
EMC6 (ER membrane protein complex subunit 6) | 3 | -0.733 | 67.3 | -0.296 | 81.3
RPL37 (ribosomal protein L37) | 1 | -2.78 | 26.5 | -1.13 | 40
RPL37 (ribosomal protein L37) | 2 | -2.22 | 37.7 | 0.712 | 34.9
RPL37 (ribosomal protein L37) | 3 | -2.01 | 41.9 | -0.489 | 53.3
KCNN3 (potassium calcium-activated channel subfamily N member 3) | 1 | -0.84 | 65.2 | -0.785 | 89.6
KCNN3 (potassium calcium-activated channel subfamily N member 3) | 2 | -1.41 | 53.9 | -1.34 | 85.7
KCNN3 (potassium calcium-activated channel subfamily N member 3) | 3 | 1.18 | 105 | 0.273 | 110
CAPN1-AS1 (CAPN1 antisense RNA 1) | 1 | -0.0435 | 81 | -0.0962 | 92.9
CAPN1-AS1 (CAPN1 antisense RNA 1) | 2 | -0.75 | 67 | -0.403 | 83.2
CAPN1-AS1 (CAPN1 antisense RNA 1) | 3 | -0.302 | 75.9 | -0.474 | 96.1
FAT4 (FAT atypical cadherin 4) | 1 | 0.419 | 90.2 | -0.875 | 127
FAT4 (FAT atypical cadherin 4) | 2 | -0.23 | 77.3 | -0.216 | 91.4
FAT4 (FAT atypical cadherin 4) | 3 | 0.447 | 90.8 | 0.15 | 97.5
MRPS15 (mitochondrial ribosomal protein S15) | 1 | -2.4 | 34.2 | -1.66 | 59.2
MRPS15 (mitochondrial ribosomal protein S15) | 2 | 0.791 | 97.6 | 0.464 | 96.5
MRPS15 (mitochondrial ribosomal protein S15) | 3 | -0.969 | 62.6 | -0.339 | 76.5
TRAPPC2L (trafficking protein particle complex subunit 2L) | 1 | -0.691 | 68.2 | -0.561 | 88.3
TRAPPC2L (trafficking protein particle complex subunit 2L) | 2 | -2.06 | 40.8 | -2.13 | 80
TRAPPC2L (trafficking protein particle complex subunit 2L) | 3 | -0.645 | 69 | -0.978 | 99.8
WDR11 (WD repeat domain 11) | 1 | -0.165 | 78.6 | -0.387 | 97.3
WDR11 (WD repeat domain 11) | 2 | -0.746 | 67 | -0.625 | 88.3
WDR11 (WD repeat domain 11) | 3 | 0.568 | 93.2 | 0.637 | 88
LINC01376 (long independently transcribed non-coding RNA 1376) | 1 | -0.0664 | 80.6 | 0.146 | 86.6
LINC01376 (long independently transcribed non-coding RNA 1376) | 2 | 0.964 | 101 | 0.547 | 97.8
LINC01376 (long independently transcribed non-coding RNA 1376) | 3 | -1.4 | 54.1 | -1.26 | 84.4
KIF7 (kinesin family member 7) | 1 | -0.23 | 77.3 | 0.173 | 82.5
KIF7 (kinesin family member 7) | 2 | -2.42 | 33.8 | -2.66 | 76.1
KIF7 (kinesin family member 7) | 3 | 2.12 | 124 | 3.59 | 53.9
BEND6 (BEN domain containing 6) | 1 | -0.879 | 64.4 | -0.663 | 85.7
BEND6 (BEN domain containing 6) | 2 | 0.179 | 85.4 | -0.182 | 100
BEND6 (BEN domain containing 6) | 3 | -0.495 | 72 | 0.0247 | 80
GRPEL1 (GrpE like 1, mitochondrial) | 1 | 0.323 | 88.3 | 0.731 | 81.4
GRPEL1 (GrpE like 1, mitochondrial) | 2 | 0.169 | 85.2 | 0.0613 | 93.7
GRPEL1 (GrpE like 1, mitochondrial) | 3 | -0.0326 | 81.2 | 0.722 | 75.1
YKT6 (YKT6 vesicular SNARE protein) | 1 | -0.142 | 79.1 | -0.476 | 100
YKT6 (YKT6 vesicular SNARE protein) | 2 | 2.34 | 128 | 1.81 | 89.1
YKT6 (YKT6 vesicular SNARE protein) | 3 | -0.416 | 73.6 | -0.417 | 91.8
ZNF492 (zinc finger protein 492) | 1 | -0.262 | 76.7 | -0.478 | 97.2
ZNF492 (zinc finger protein 492) | 2 | -1.23 | 57.4 | -0.694 | 77
ZNF492 (zinc finger protein 492) | 3 | -1.48 | 52.5 | -2.06 | 101

Part of the list above in another layout:
target,reagent no.,"total luciferase, z-score","total luciferase, % of control","luciferase per cell, z-score","viable cells, % of control"
WDR11 (WD repeat domain 11),1,-0.165,78.6,-0.387,97.3
WDR11 (WD repeat domain 11),2,-0.746,67,-0.625,88.3
WDR11 (WD repeat domain 11),3,0.568,93.2,0.637,88
LINC01376 (long independently transcribed non-coding RNA 1376),1,-0.0664,80.6,0.146,86.6
LINC01376 (long independently transcribed non-coding RNA 1376),2,0.964,101,0.547,97.8
LINC01376 (long independently transcribed non-coding RNA 1376),3,-1.4,54.1,-1.26,84.4
